Results taken from paper PMC3429922.

By UniProt entry, the sequences of proteins in these tests, tags left out. Where a name states a change or a piece, a line headed by the entry shows the natural chain unless it says otherwise.
UniProt Q2VWH6: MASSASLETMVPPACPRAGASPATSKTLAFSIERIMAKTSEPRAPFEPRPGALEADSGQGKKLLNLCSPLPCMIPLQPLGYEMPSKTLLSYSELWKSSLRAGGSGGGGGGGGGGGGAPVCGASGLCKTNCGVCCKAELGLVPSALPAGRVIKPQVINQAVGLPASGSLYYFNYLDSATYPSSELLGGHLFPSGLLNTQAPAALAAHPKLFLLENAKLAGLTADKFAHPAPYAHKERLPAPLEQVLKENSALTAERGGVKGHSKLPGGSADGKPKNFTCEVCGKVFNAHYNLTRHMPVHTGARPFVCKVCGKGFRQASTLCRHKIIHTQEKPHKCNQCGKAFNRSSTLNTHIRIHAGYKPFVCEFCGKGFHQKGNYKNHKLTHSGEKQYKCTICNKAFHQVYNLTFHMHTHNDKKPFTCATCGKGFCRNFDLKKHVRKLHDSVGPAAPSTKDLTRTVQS

Target: FEZL (forebrain embryonic zinc finger-like) (Bos taurus) (UniProt Q2VWH6)
Assay: EMSA competition
Details: Promega gel shift assay system, COS7 nuclear extract, 4-20% TBE gel (supershift), 6% retardation gel (competition), pH and temperature not stated, protein in an extract

## CACCCCCCCCCCTTTTTTTTTTTTGA (double strand) [10C]
Long C stretch bound stronger than shorter ones
  binding result: binds

## CACCCCCCCCCTTTTTTTTTTTTGA (double strand) [9C]
Relative to 10C
  binding result: binds more weakly

## CACCCCCCCCTTTTTTTTTTTTGA (double strand) [8C]
Relative to 10C
  binding result: binds more weakly

For at least one entry, the source does not settle the construct or the ends of the probe. At least one result comes from cells or an extract, where the contact may be indirect. A weaker result is weaker than the reference pair of the same experiment. At least one verdict was read from the data and is not stated in words by the source.
